This assay addresses Glycogen synthase kinase-3 alpha (Homo sapiens, UniProt P49840).

The chains behind the UniProt entries cited, without tags or fusion partners. Where a name states a change or a piece, a line headed by the entry shows the natural chain unless it says otherwise.
UniProt P49840: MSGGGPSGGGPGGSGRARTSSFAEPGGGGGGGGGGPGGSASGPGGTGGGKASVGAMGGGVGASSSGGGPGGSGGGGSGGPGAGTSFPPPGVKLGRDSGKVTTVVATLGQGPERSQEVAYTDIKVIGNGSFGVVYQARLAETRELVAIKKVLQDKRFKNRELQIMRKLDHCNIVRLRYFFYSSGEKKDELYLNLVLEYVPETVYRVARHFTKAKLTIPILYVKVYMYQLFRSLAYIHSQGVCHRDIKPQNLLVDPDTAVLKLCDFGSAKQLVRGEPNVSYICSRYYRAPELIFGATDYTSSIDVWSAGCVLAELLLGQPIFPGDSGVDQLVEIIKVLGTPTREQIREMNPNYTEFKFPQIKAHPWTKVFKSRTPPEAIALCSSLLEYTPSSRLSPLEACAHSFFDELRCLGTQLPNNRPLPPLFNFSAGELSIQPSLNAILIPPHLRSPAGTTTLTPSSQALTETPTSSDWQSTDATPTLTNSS

pIC50: −log10 of the molar value.

In turn, `CCCC(=O)Nc1n[nH]c2nnc(-c3ccccc3)cc12` gave a pIC50 of 8.40.

The record behind these values is ChEMBL document CHEMBL1136434, “5-aryl-pyrazolo[3,4-b]pyridazines: potent inhibitors of glycogen synthase kinase-3 (GSK-3)” (Bioorg Med Chem Lett, 2003).
